Data reported in patent US20200289521A1, “USE OF VITAMIN K IN COMBINATION WITH ANTICOAGULANTS” (KAYDENCE PHARMA AS, priority 2019, published 2020).
At least one compound was matched to its structure with a doubt left.

Experiments:
[1] = system: whole-blood thrombogenicity; assay: T-TAS Total Thrombus-formation Analysis of whole blood from treated Sprague-Dawley rats; type: in vivo; conditions: anticoagulant alone
Method: (§1) This experiment was conducted in order to evaluate the effects of vitamin K2 (MK-7) on the anticoagulant activity of the new oral anticoagulants (NOAC) rivaroxaban and dabigatran using the T-TAS Total Thrombus-formation Analysis System. The T-TAS Total Thrombus-formation Analysis System is a microchip-based flow chamber system capable of evaluating whole-blood thrombogenicity. It is a useful tool in monitoring the efficacy of anticoagulants on thrombus formation and predicting the risk of bleeding complications. […] Four days before the start of the treatment, the first part of animals' body weight and food intake was measured in selected representative three cages (rats n=9) to calculate the appropriate amount of tested compounds required for addition to the diet to obtain the dosing indicated in Table 1. […] The body mass of the rats was measured at the beginning and at the end of treatment. At the beginning and at the end of treatment, the food intake per day was measured in representative group of animals to monitor the daily dosing of tested compounds (per kg of body mass). The thrombus formation in vitro was measured in whole blood using a microchip-based flow chamber system according to manufacturers' protocol (Total Thrombus-formation Analyser System, T-TAS; Fujimori Kogyo Co., Ltd., Tokyo, Japan). […]

[2] = system: whole-blood thrombogenicity; assay: T-TAS Total Thrombus-formation Analysis of whole blood from treated TGR rats; type: in vivo, transgenic Ren-2 rats [TGR(mREN-2)27]; conditions: anticoagulant alone
Method: as §1

In the case of `[H]/N=C(/N)c1ccc(NCc2nc3cc(C(=O)N(CCC(=O)O)c4ccccn4)ccc3n2C)cc1` [Dabigatran], the thrombus formation [1] is reported as “inhibited thrombus formation” and the thrombus formation [2] is reported as “also inhibited thrombus formation”.
